# Experimental data as given in PubChem BioAssay (NCATS).
# Where “and” joins values, the source holds several entries; their conditions need not be identical. Identical values can stand only once. Inconclusive results, whose numbers are uncertain, are shown with a selection of clear calls. For some assays here: A potency beside an inconclusive call is a rough fit, not a confirmed value. Calls of active or inactive are those of the source. Calls come from the whole dose curve; as a rule, active = well fitted curve in the direction sought with a large enough effect; inconclusive = small, poorly fitted or top-dose-only effect, or another doubt; inactive = no such curve, though single readings can be large; an effect the other way counts as inactive or inconclusive.
# Assays:
# [1] = Cell Proliferation Assay against the TMD8 Cell Line (Caspase readout at 16 hrs) (AID 651712); settings: TMD8 lymphoma cells, caspase activation luminescence; caspase activation: at 46.1 µM (top of the series); note: potency is the fitted concentration of half-maximal effect
# Procedure, shortened: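 16 h, 37 °C, TMD8 (500 cells/well), RPMI/5% FBS no phenol red; Caspase-Glo 3/7, 15 min RT, luminescence; %act: DMSO 0, bortezomib 9.2 uM final 100.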
# [2] = Cell Proliferation Assay against the TMD8 Cell Line (Caspase readout at 8 hrs) (AID 651713); settings: TMD8 lymphoma cells, caspase activation luminescence; caspase activation: at 46.1 µM (top of the series); note: potency is the fitted concentration of half-maximal effect;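 for caspase activation: 0% = DMSO and 100% = 9.2 µM bortezomib caspase signal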
# Procedure, shortened: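 Apoptosis readout: caspase 3/7 luminescence (Caspase-Glo), 15 min RT. Cells: TMD8, 500/well, RPMI + 5% FBS, no phenol red. Exposure 8 h, 37C. % activity vs DMSO = 0, bortezomib 9.2 uM final = 100.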
# [3] = Identifying Small Molecule Inhibitors of Pancreatic Cancer Stem Cells (A2780, Spheroid) (AID 1259357); settings: Potency: A2780 spheroid viability; viability (percent of control): at 46.1 µM (top of the series); note: potency is the fitted concentration of half-maximal effect;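 note: spheroids pre-formed over 14 days in stem cell medium on hydrogel; compound exposure lasted 48 h before the ATP luminescence read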;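 for viability (percent of control): 100% = DMSO treated cells and 0% = wells without cells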
# Procedure, shortened: (§1)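 Viability is scored by CellTiter-Glo luminescence 48 h after dosing, expressed as percent activity against vehicle and no-cell references. Spheroid formats rely on cells cultured 14 days in stem cell media beforehand.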
# [4] = Identifying Small Molecule Inhibitors of Pancreatic Cancer Stem Cells (Panc1, Spheroid) (AID 1259359); settings: Panc1 spheroid cancer stem cell viability; viability, % of control: at 46.1 µM (top of the series) unless noted;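 note: compound exposure lasted 48 h before reading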; note: potency is the fitted concentration of half-maximal effect
# Procedure, shortened: (§2)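 Adherent (2D) versus sphere (3D) formats; spheres generated 14 d in SCM beforehand. Compound transferred by pin tool after 4 h, 48 h incubation, CellTiter-Glo endpoint.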
# [5] = Identifying Small Molecule Inhibitors of Pancreatic Cancer Stem Cells (SN12C, Spheroid) (AID 1259360); settings: Potency: SN12C spheroid viability; note: potency is the fitted concentration of half-maximal effect;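 for viability (% of control): 100% = DMSO-treated cells and 0% = wells without cells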
# Procedure, shortened: as §1
# [6] = Identifying Small Molecule Inhibitors of Pancreatic Cancer Stem Cells (A278, Adherent) (AID 1259361); note: nearly all actives have a fitted effect of over 35% in size
# Procedure, shortened: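 After a 4 h attachment period, compounds were pinned into wells and cultures held 48 h under standard incubator conditions. Viability was then measured as CellTiter-Glo luminescence following 10 min at room temperature.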
# [7] = P-glycoprotein substrates identified in KB-8-5-11 adenocarcinoma cell line, qHTS therapeutic library screen (AID 1346987); note: nearly all actives have a fitted effect of over 65% in size; note: potency is the fitted concentration of half-maximal effect
# Procedure, shortened: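 In this qHTS, P-gp-rich KB-8-5-11 cells received library compounds across a concentration range. Viability was quantified by luminescence after 72 h at 37 degree C.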
# [8] = qHTS of pediatric cancer cell lines to identify multiple opportunities for drug repurposing: Primary screen for BT-12 cells (AID 1347101); note: potency is the fitted concentration of half-maximal effect; nearly all actives have a fitted effect of over 25% in size
# Procedure, shortened: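 Cells (500-1,000/well) rested 5 h, then received compounds for 48 h; metabolically active cells were measured by CellTiter-Glo luminescence. Final concentrations spanned up to 46 µM (MIPE, 11-point) or 0.59 nM-46 µM (NPC, 8-point) in primary screens, 11-point in follow-ups.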
# [9] = qHTS of pediatric cancer cell lines to identify multiple opportunities for drug repurposing: Primary screen for Rh18 cells (AID 1347102); note: potency is the fitted concentration of half-maximal effect; nearly all actives have a fitted effect of over 65% in size
# Procedure, shortened: (§3)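 Cells (500-1,000/well) in growth media were settled 5 h at 37 degrees C, then given compounds for 48 h. Viability was read as CellTiter-Glo luminescence. Primary runs used MIPE at 11 points (0.78 nM-46 µM) and NPC at 8 points (0.59 nM-46 µM); follow-ups used 11 points.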
# [10] = qHTS of pediatric cancer cell lines to identify multiple opportunities for drug repurposing: Primary screen for Rh41 cells (AID 1347108); note: potency is the fitted concentration of half-maximal effect; nearly all actives have a fitted effect of over 70% in size
# Procedure, shortened: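 500-1,000 cells/well; 5 h pre-incubation 37 °C/5% CO2; compound pinned; 48 h; CellTiter-Glo, 15 min RT; luminescence. MIPE 11-pt from 0.78 nM, NPC 8-pt from 0.59 nM final. Bortezomib 2.3 µM final as positive control.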
# [11] = Quantitative High-Throughput drug screen in 47 multiple myeloma cell lines against the NCATS MIPE library collection: JIM1_ECACC cell viability assay (AID 1918964; note: potency is the fitted concentration of half-maximal effect)
# Procedure, shortened: (§4)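 CellTiter-Glo luminescence (ATP) after 48 h compound exposure, 37C/5% CO2; 500 cells/well; MIPE 4.0 approved/investigational drugs pinned in; DMSO = 100%, media only = 0% viability.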
# [12] = Quantitative High-Throughput drug screen in 47 multiple myeloma cell lines against the NCATS MIPE library collection: KMS20_JCRB cell viability assay (AID 1918973); settings: CellTiter-Glo ATP, 48 h; viability (% of DMSO): at 45.8 µM (top of the series); note: potency is the fitted concentration of half-maximal effect; nearly all actives have a fitted effect of over 45% in size
# Procedure, shortened: as §4
# [13] = Quantitative High-Throughput drug screen in 47 multiple myeloma cell lines against the NCATS MIPE library collection: KMS21BM_JCRB cell viability assay (AID 1918974); settings: ATP luminescence, 48 h; viability: at 45.8 µM (top of the series); note: potency is the fitted concentration of half-maximal effect
# Procedure, shortened: as §4
# [14] = Quantitative High-Throughput drug screen in 47 multiple myeloma cell lines against the NCATS MIPE library collection: MOLP8_DSMZ cell viability assay (AID 1918977); settings: MOLP8 myeloma viability, CellTiter-Glo ATP luminescence, 48 h; viability (% of control): at 45.8 µM (top of the series); note: nearly all actives have a fitted effect of over 45% in size; note: potency is the fitted concentration of half-maximal effect
# Procedure, shortened: (§5)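 Readout: median RLU from CellTiter-Glo after 5 min at room temperature. Preceding step was 48 h drug treatment of 500 cells/well at 37 °C, 5% CO2, with DMSO-only and media-only control wells.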
# [15] = Quantitative High-Throughput drug screen in 47 multiple myeloma cell lines against the NCATS MIPE library collection: LP1_DSMZ cell viability assay (AID 1918982); note: potency is the fitted concentration of half-maximal effect; nearly all actives have a fitted effect of over 35% in size
# Procedure, shortened: as §5
# [16] = Quantitative High-Throughput drug screen in 47 multiple myeloma cell lines against the NCATS MIPE library collection: L363_DSMZ cell viability assay (AID 1918984); settings: L363 myeloma viability, CellTiter-Glo ATP luminescence, 48 h; viability (% of control): at 45.8 µM (top of the series); note: potency is the fitted concentration of half-maximal effect; nearly all actives have a fitted effect of over 40% in size
# Procedure, shortened: as §5
# [17] = test system: CRL-7250; experiment: Cytotoxic Profiling of Annotated Libraries Using Quantitative High-Throughput Screening (AID 1296008); settings: Five cell lines viability, CellTiter-Glo ATP luminescence, 48-72 h; max response: stronger effect = lower value; note: potency is the fitted concentration of half-maximal effect; nearly all actives have a fitted effect of over 60% in size
# Procedure, shortened: (§6)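 Compounds were pin-transferred onto cells and incubated 48 or 72 hr at 37 degree Celsius, 95% humidity. CellTiter-Glo was added, plates sat 10 min at room temperature, then ATP-coupled luminescence was imaged as the viability read-out.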
# [18] = Identifying Small Molecule Inhibitors of Pancreatic Cancer Stem Cells (Panc1, Adherent) (AID 1259362); settings: Potency: viability unless noted; viability, % of control: at 46.1 µM (top of the series) unless noted; note: potency is the fitted concentration of half-maximal effect
# Procedure, shortened: as §2
# [19] = qHTS of pediatric cancer cell lines to identify multiple opportunities for drug repurposing: Primary screen for Rh30 cells (AID 1347107); note: potency is the fitted concentration of half-maximal effect; nearly all actives have a fitted effect of over 75% in size
# Procedure, shortened: as §3
# [20] = test system: HEK293; experiment: Cytotoxic Profiling of Annotated Libraries Using Quantitative High-Throughput Screening (AID 1296008); settings: Five cell lines viability, CellTiter-Glo ATP luminescence, 48-72 h; max response: stronger effect = lower value; note: potency is the fitted concentration of half-maximal effect; nearly all actives have a fitted effect of over 60% in size
# Procedure, shortened: as §6
smiles,measurement,setting,value
CC1(C)CNc2cc(NC(=O)c3cccnc3NCc3ccncc3)ccc21,Potency,[1],"inconclusive: 33.2 µM [activator, single point]"
same,Potency,[2],inactive
same,Potency,[3],"inconclusive: 0.0187 µM [rising, full curve, poor fit]"
same,"viability, % of control",[4],inconclusive: 133%
same,Potency,[5],inactive
same,IC50 (viability decrease),[6],"inconclusive: 29.6 µM [cytotoxic, single point]"
same,Potency,[7],"inconclusive: 16.4 µM [inhibitor, partial curve, poor fit]"
same,Potency,[8],"inconclusive: 24.3 µM [cytotoxic, partial curve]"
same,Potency,[9],"inconclusive: 18.7 µM [cytotoxic, partial curve]"
same,Potency,[10],"inconclusive: 7.43 µM [cytotoxic, partial curve]"
same,Potency,[11],"inconclusive: 0.418 µM [rising, full curve, poor fit]"
same,Potency,[12],"inconclusive: 16.6 µM [cytotoxic, partial curve, poor fit]"
same,Potency,[13],"inconclusive: 33.2 µM [rising, partial curve]"
same,viability (% of control),[14],inconclusive: 58.6% [cytotoxic]
same,Potency,[15],"inconclusive: 26.4 µM [cytotoxic, single point]"
same,Potency,[16],"inconclusive: 26.4 µM [cytotoxic, partial curve, poor fit]"
same,Potency,[17],"inconclusive: 18.7 µM [inhibitor, partial curve] and inconclusive: 20.6 µM [inhibitor, single point]"
CNC1CCN(C(Cc2cccc(-c3ccncc3)c2)C(=O)c2sc3c(F)ccc(F)c3c2Cl)CC1 (stereo unspecified),Potency,[1],"inconclusive: 29.6 µM [activator, single point]"
same,Potency,[2],"inconclusive: 33.2 µM [activator, single point]"
same,Potency,[3],inactive
same,Potency,[4],"inconclusive: 33.2 µM [cytotoxic, single point]"
same,Potency,[5],"inconclusive: 33.2 µM [cytotoxic, single point]"
same,IC50 (viability decrease),[6],"inconclusive: 29.6 µM [cytotoxic, single point]"
same,Potency,[18],"inconclusive: 20.9 µM [cytotoxic, partial curve]"
CC1(C)CCC(c2ccc(Cl)cc2)=C(CN2CCN(c3ccc(C(=O)NS(=O)(=O)c4ccc(N[C@H](CCN5CCOCC5)CSc5ccccc5)c(S(=O)(=O)C(F)(F)F)c4)cc3)CC2)C1,Potency,[1],"inconclusive: 2.64 µM [activator, full curve]"
same,Potency,[2],active: 29.6 µM
same,Potency,[3],active: 20.9 µM
same,Potency,[4],"inconclusive: 4.18 µM [cytotoxic, partial curve, poor fit]"
same,Potency,[5],active: 16.6 µM
same,Potency,[7],"inactive and inconclusive: 20.6 µM [inhibitor, single point]"
same,Potency,[9],active: 0.0296 µM
same,Potency,[19],active: 9.35 µM
same,Potency,[10],active: 5.9 µM
same,Potency,[11],"inconclusive: 3.72 µM [cytotoxic, partial curve, poor fit]"
same,Potency,[12],inconclusive: 0.001 µM
same,Potency,[13],"inconclusive: 33.2 µM [rising, partial curve]"
same,Potency,[14],"inconclusive: 10.5 µM [cytotoxic, partial curve, poor fit]"
same,Potency,[15],active: 20.9 µM
same,Potency,[16],"inconclusive: 0.662 µM [cytotoxic, full curve, poor fit]"
same,Potency,[17],"inconclusive: 29.1 µM [inhibitor, single point]"
same,Potency,[20],"inconclusive: 18.7 µM [inhibitor, single point]"
